Reference: US20090111753A1, “Nogo-A Polypeptide Fragments, Variant Nogo Receptor-1 Polypeptides, and Uses Thereof” (Yale University, priority 2004, published 2009)
Changes are numbered by the printed parent chain. In names and notes the source's numbering stands. No constants are given. Whether binding was seen depends on the method and setting. Some binding calls cover weakened binding; strength is not graded here.

Protein sequences, listed by entry. Tags and fused reporters are not part of them. Lines headed by an entry give the natural chain unless they say otherwise; changes in a name come on top.
UniProt Q9BZR6: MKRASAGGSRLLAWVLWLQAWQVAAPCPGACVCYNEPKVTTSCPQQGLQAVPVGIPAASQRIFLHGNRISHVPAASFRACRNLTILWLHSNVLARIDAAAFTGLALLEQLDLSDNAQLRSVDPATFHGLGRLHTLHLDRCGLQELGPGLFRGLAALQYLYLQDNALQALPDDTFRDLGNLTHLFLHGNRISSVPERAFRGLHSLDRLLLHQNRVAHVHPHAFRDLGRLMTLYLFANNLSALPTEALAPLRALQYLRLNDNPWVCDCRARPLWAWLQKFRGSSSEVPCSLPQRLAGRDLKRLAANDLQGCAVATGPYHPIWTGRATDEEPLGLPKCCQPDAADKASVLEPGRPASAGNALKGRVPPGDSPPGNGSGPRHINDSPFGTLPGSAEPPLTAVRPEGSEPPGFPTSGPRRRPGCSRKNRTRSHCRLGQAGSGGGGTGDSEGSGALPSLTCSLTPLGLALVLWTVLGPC

Experiments:
Assay in all cases: AP-ligand binding, COS-7
[1] = target: T1, human NgR1 alanine mutant 36, 38, 61 (human) (UniProt Q9BZR6)
T1 sequence: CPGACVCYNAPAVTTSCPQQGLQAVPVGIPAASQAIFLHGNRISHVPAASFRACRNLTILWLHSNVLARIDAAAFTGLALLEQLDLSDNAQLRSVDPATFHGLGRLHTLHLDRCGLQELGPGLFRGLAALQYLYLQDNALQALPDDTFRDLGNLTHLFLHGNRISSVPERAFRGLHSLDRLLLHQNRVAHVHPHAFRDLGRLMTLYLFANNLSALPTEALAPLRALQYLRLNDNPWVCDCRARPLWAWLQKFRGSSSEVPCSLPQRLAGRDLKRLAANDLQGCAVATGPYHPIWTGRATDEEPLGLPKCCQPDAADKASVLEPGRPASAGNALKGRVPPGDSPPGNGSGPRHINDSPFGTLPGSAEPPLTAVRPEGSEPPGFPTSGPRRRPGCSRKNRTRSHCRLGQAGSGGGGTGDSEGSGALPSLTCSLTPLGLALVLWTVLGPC

[2] = target: T2, human NgR1 alanine mutant 36, 38 (human) (UniProt Q9BZR6)
T2 sequence: T1 sequence with A35R

[3] = target: T3, human NgR1 alanine mutant 179 (human) (UniProt Q9BZR6)
T3 sequence: T1 sequence with A10E, A12K, A35R, N153A

[4] = target: T4, human NgR1 alanine mutant 127, 151 (human) (UniProt Q9BZR6)
T4 sequence: T1 sequence with A10E, A12K, A35R, H101A, R125A

[5] = target: T5, human NgR1 alanine mutant 296, 297, 300 (human) (UniProt Q9BZR6)
T5 sequence: T1 sequence with A10E, A12K, A35R, R270A, D271A, R274A

[6] = target: T6, human NgR1 alanine mutant 277, 279 (human) (UniProt Q9BZR6)
T6 sequence: T1 sequence with A10E, A12K, A35R, K251A, R253A

Measured: binding

B1: AP-Nogo-66 (ligand, UniProt Q9NQC3 1055-1120, looked up)
chain: RIYKGVIQAIQKSDEGHPFRAYLESEVAISEELVQKYSNSALGHVNCTIKELRRLFLVDDLVDSLK
notes: domain: Nogo-66; construct described elsewhere (Fournier 2001); also called AP-Ng66; Ng66; not shown: alkaline phosphatase (AP); construct described elsewhere
binds: all assays above

B2: AP-fused Amino-Nogo fragment B4C (a.a. 950-1018) (ligand)
chain: LLPPDVSALATQAEIESIVKPKVLVKEAEKKLPSDTEKEDRSPSAIFSAELSKTSVVDLLYWRDIKKTG
notes: also called AmNg B4C; AP-B4C; not shown: alkaline phosphatase (AP), vector pcAP6
binds: all assays above
